Literature values as cited in patent US8153160B2 (Bayer Pharma Aktiengesellschaft, priority 2005, dated 2012).

Conditions: in vivo; cited from earlier work

Structure (SMILES): COC(=O)C1=C(C)NC(C)=C(C(=O)OC)C1c1ccccc1[N+](=O)[O-] [Nifedipine]
- plasma half-life: about 2 hours
